{
  "source": "paper PMC9927019",
  "target": "DST (HST1) wild type (UniProt A0A0E0GUL5)",
  "assay": "EMSA",
  "conditions": "0.5 ug protein, 2 ng labeled oligo, 5 ug poly(dI-dC), 20 ul, 20 ul reactions, 2 ng labeled DNA, pH and temperature not given (as in Lai et al., 2011), recombinant protein, label: 32P",
  "note": "Construct, isoform or probe ends are uncertain for at least one entry.",
  "data": [
    {"sequence": "GGCTATACTAACCGTGCTGCTAGCCATTAGGCCCAAGTTAGT (double strand) [DST-binding sequence oligo]", "values": [
      {"measurement": "binding result", "result": "binds"}
    ]}
  ]
}
